Experimental data taken from patent US20140294765A1 (COMPUGEN, published 2014).
Results are given in words; binding and its absence hold for the method and conditions named. A result given as binding can be weak or reduced; the word gives no strength.

Columns and labels:
[1] = molecular target: endogenous human LSR protein of cancer cell lines (human); assay: flow cytometry with hybridoma supernatant after LSR siRNA against scrambled siRNA (FIG. 17)
[2] = molecular target: endogenous human LSR protein of cancer cell lines (human); assay: flow cytometry on HT29 cells (endogenous LSR) with 8C8 hybridoma supernatant, after LSR-specific or scrambled siRNA (30 pmol), FL1-H
[3] = molecular target: endogenous human LSR protein of cancer cell lines (human); assay: flow cytometry on HepG2/C3A cells (endogenous LSR) with 8C8 hybridoma supernatant, after LSR-specific or scrambled siRNA (50 pmol), FL1-H

binding [1]: binds
binding [2]: binds
binding [3]: binds
B1: 8C8, mouse IgG2a monoclonal antibody against human LSR (antibody, V domains shown)
VH: DVKLVESGGGLVKLGGSLKLSCAASGFTFSSYYMSWVRQTPEKRLELVAAINSNGGSTYYPDTVKGRFTISRDNAKNTLYLQMSSLKSEDTALYYCARHDYYGSSFAMDYWGQGTSVTVSS
VL: DIQMTQTTSSLSASLGDRVTISCRASQDISNYLNWYQQKPDGTVKLLIYYTSRLHSGVPSRFSGSGSGTDYSLTISNLEQEDIATYFCQQDSKHPWTFGGGTKLEIK
notes: also called 8C8 mAb; mAb 8C8
